The values below come from patent US20250002596A1, “NEUTRALIZING ANTI-CD95L MONOCLONAL ANTIBODIES” (INSTITUT NATIONAL DE LA SANTÉ ET DE LA RECHERCHE MÉDICALE, priority 2021, published 2025).

Sequences of proteins named here, by UniProt entry; tags and fusion partners are left off. A change or cut given only in a name is not applied to a line headed by its entry.
UniProt P48023: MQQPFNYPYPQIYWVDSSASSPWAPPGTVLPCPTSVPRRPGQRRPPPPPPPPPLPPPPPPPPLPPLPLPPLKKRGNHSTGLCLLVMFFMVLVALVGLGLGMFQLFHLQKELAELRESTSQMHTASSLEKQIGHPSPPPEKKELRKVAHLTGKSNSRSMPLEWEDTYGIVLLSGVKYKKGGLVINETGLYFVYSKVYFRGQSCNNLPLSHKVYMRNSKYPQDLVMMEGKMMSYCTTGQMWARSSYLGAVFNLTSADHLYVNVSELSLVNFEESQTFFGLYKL

The target in this assay is Ig-CD95L (soluble and cytotoxic human CD95L) (human) (UniProt P48023). As to the kind of experiment: ELISA-type screen on IgCD95L immobilized in microtiter plates. For orientation: ELISA stands for enzyme-linked immunosorbent assay.

Results are given in words; binding and its absence hold for the method and conditions named. Some results given as binding are weak or reduced against the parent protein; the word gives no strength.

B1: JQ3 neutralizing anti-CD95L monoclonal antibody (IgG1κ) (antibody, V domains shown)
VH: EIQLQQTGPELVKPGASVKISCKASGFSFTDYIMVWVKQSHGKILEWIGDISPYYGTATYNLKFKGKATLTVVKSSSTAYMQLNSLTSEDSAVYYCARAPNRYEVMDYWGQGTSVTVSS
VL: QIVFTQSPAIMSAFLGEEITLTCSASSSVSYMHWYQQKSGTSPKLLIYNTFNLASGVPSRFSGSGSGTFYSLTISSVEAEDAADYYCHQWSSYPTFGGGTKLEIK
notes: Mouse (Balb/c) hybridoma antibody, IgG1 kappa, purified on protein A; also called JQ3 mAb
Turning to B1, the binding entry is listed as “binds”.
